Measured values as given in patent US8673910B2, “Proteasome inhibitors for selectively inducing apoptosis in cancer cells” (H. Lee Moffitt Cancer Center and Research Institute, priority 2008, dated 2014).
Entries after “also recorded” stand apart in the source; their conditions may differ. At least one compound was matched to its structure with a doubt left.

Chains of the proteins cited; added tags and fusions are not shown. Lines headed by an entry give the natural chain unless they say otherwise; changes in a name come on top.
UniProt P20618: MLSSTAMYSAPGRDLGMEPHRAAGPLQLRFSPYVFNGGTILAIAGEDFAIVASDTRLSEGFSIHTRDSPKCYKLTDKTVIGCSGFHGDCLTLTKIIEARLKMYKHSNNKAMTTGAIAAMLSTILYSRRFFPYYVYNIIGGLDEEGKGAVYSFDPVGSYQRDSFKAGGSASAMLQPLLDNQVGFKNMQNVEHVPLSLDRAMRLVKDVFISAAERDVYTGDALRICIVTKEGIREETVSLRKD
UniProt P28074: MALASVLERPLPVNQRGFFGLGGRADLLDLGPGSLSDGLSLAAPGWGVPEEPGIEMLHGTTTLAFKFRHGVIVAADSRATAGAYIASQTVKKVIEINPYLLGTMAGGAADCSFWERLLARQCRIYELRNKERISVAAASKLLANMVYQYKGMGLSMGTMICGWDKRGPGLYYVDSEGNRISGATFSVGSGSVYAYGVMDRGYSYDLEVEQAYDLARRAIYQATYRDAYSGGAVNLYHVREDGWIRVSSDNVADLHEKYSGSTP

Key:
[1] = tested on: trypsin-like (T-L) activity of purified 20S rabbit proteasome; experiment: Proteolytic activity of purified 20S proteasome, fluorogenic substrate Bz-Val-Gly-Arg-AMC; type: biochemical; conditions: ratio of IC50 values
Procedure: (§1) In the high-throughput screen, the inventors used fluorogenic peptides as substrates to assay 3,229 compounds of the NCI Diversity, Natural Product, Challenge and Mechanistic Sets for inhibitory activity against the proteolytic activities of the purified 20S proteasome, resulting in the identification of PI-083. […] After incubation, production of hydrolyzed 7-amido-4-methyl-coumarin (AMC) groups was measured using a WALLAC Victor^2 1420 Multilabel Counter with an excitation filter of 355 nm and an emission filter of 460 nm (Perkin Elmer Life Sciences, Turku, Finland).

[2] = tested on: PGPH activity of purified 20S rabbit proteasome; experiment: Proteolytic activity of purified 20S proteasome, fluorogenic substrate Z-Leu-Leu-Glu-AMC; type: biochemical; conditions: ratio of IC50 values
Procedure: as §1

[3] = tested on: p27^Kip1 levels in A549 lung cancer cells; experiment: Western blot of p27Kip1 in cultured A549 cells; type: cell-based, human; conditions: 48 h treatment
Procedure: (§2) Cell lysates (50 μg) were separated by SDS-PAGE and transferred to a nitrocellulose membrane, probed with p27^Kip1 and β-actin antibodies, and signals were visualized by enhanced chemoluminescence (ECL, Amersham, Piscataway, N.J.) according to the manufacturer's protocol.

[4] = tested on: p27^Kip1 protein in A549 tumors; experiment: Western blot of p27Kip1 in A549 tumor lysates; type: in vivo; conditions: A549-bearing nude mice
Procedure: as §2

[5] = tested on: CT-L activity of rabbit 20S proteasome; experiment: Dialysis using purified rabbit 20S proteasome; type: biochemical
Procedure: To measure the effect of dialysis on CT-L activity, compounds (10 μM) or vehicle (0.1% DMSO) were added to rabbit 20S proteasome (225 ng) (Boston Biochem) in proteasome assay buffer (50 mM Tris-HCl, pH 7.6) and incubated at 37° C. for 30 min. After 30 min of incubation, proteasome-compound mixtures were added to 10,000 MWCO Thermo Scientific Slide-A-Lyzer Dialysis Cassette (Rockford, Ill.) and dialyzed against proteasome assay buffer. Immediately (t=0) and 0.5 h, 1 h, 2 h, 4 h, and 18 h of dialysis at 4° C., samples were removed from the dialysis cassette and the CT-L 20S proteasome activity was determined. Proteasome activity was normalized against proteasome activity of DMSO control.

[6] = molecular target: T1, CT-L activity in MCF-7/MCF-10A, T80-H/T80, HPDE6-C7-Kras/HPDE6-C7 cells (Homo sapiens, UniProt P20618+P28074); experiment: CT-L activity in whole cell extracts of treated cancer and non-transformed cell pairs; type: cell-based; conditions: 3 pairs of cell lines, 24 h treatment
T1 construct: endogenous in cells; host or cells: MCF-7, MCF-10A, T80-H, T80, HPDE6-C7-Kras, HPDE6-C7

[7] = tested on: MCF-7/MCF-10A, T-80-Hras/T-80, C7-Kras/C7 cells; experiment: Trypan blue cell counting, proliferation of cancer and non-transformed cell pairs; type: cell-based, human; conditions: 3 pairs of cell lines, 24 hours
Procedure: Adherent cells were harvested using trypsinization and pooled with suspension cells from media supernatant by pelleting at 300 g for 5 min at 4° C. The cells were then resuspended in an appropriate volume of media by pipetting gently up and down. Two 20 μl aliquots were removed and combined with an equal volume of 0.4% Trypan blue and allowed to mix for 1 minute. A 10 μl volume was loaded onto a hemacytometer and cells were scored as live or dead based on Trypan blue dye exclusion and the percentage of dead cell number to total cell number was calculated. To calculate the percentage of proliferation, the number of live cells in the treated samples was divided by the number of live cells in the untreated vehicle control.

[8] = tested on: MCF-7/MCF-10A, T-80-Hras/T-80, C7-Kras/C7 cells; experiment: Trypan blue exclusion, cell death in cancer and non-transformed cell pairs; type: cell-based, human; conditions: 3 pairs of cell lines, 24 h
[9] = tested on: MCF-7/MCF-10A, T-80-Hras/T-80, C7-Kras/C7 cells; experiment: TUNEL assay, apoptosis in cancer and non-transformed cell pairs; type: cell-based, human; conditions: 3 pairs of cell lines, 24 h
Procedure: Terminal deoxynucleotidyl transferase-mediated nick-end labeling (TUNEL) was used to determine the extent of DNA strand breaks (Kazi et al., 2004). The assay was performed with the APO-Direct Kit following the manufacturer's instructions. In brief, the harvested cells were fixed in 1% paraformaldehyde for 45 minutes on ice, washed twice with PBS, and then fixed again in 70% ethanol at −20° C. overnight. The cells were then incubated in DNA labeling solution (containing terminal deoxynucleotidyl transferase (TdT) enzyme, fluorescence-conjugated dUTP and reaction buffer) for 60 minutes at 37° C. After rinsing the cells to remove the DNA labeling solution, the cells were incubated with the propidium iodide/RNase A solution, incubated for 30 minutes at room temperature in the dark, and analyzed by flow cytometry within 3 hours of staining.

O=C1C(Cl)=C(Nc2ccc(S(=O)(=O)Nc3ccccn3)cc2)C(=O)c2ccccc21 [PI-083, 4-(3-chloro-1,4-dioxo-1,4-dihydronaphthalen-2-ylamino)-N-(pyridin-2-yl)benzenesulfonamide]
selectivity for CT-L over T-L [1]: 4 fold | selectivity for CT-L over PGPH [2]: 4 fold | p27^Kip1 levels in cultured A549 lung cancer cells [3]: marked increase | treated tumors with dramatic upregulation of p27^Kip1 protein [4]: 3 out of 4 | recovery rate of CT-L activity, PI-083 relative to Bortezomib at 18 h ([5]; 18 h of dialysis): more than 2 fold | time of dialysis at which CT-L activity started to recover ([5]; compound 10 μM): 30 min | inhibition of CT-L activity of the 20S proteasome in the absence of dialysis ([5]; compound 10 μM, 30 min pre-incubation at 37° C.): 88% | nature of proteasome inhibition (reversible / irreversible) ([5]; purified 20S proteasome): reversible proteasome inhibitor; also recorded: binds to purified 20s proteasome in an irreversible manner | selectivity of CT-L inhibition in tumor over non-transformed cells [6]: inhibited more selectively the CT-L activity in tumor over non-transformed cells | inhibition of proliferation, cancer vs non-transformed cells (Trypan blue) [7]: inhibited the proliferation of all three cancer cell lines (MCF-7, T-80-Hras and C7-Kras) more potently than their non-transformed “normal” counterparts | cell death, cancer vs non-transformed cells (Trypan Blue) [8]: much more effective in increasing cell death in all 3 cancer cell lines over their non-transformed counterparts | apoptosis (TUNEL) [9]: did not induce apoptosis in non-transformed MCF-10A and C7 and induced very little apoptosis in T-80 cells
